US12018229B2, “Organic compounds” (Givaudan SA, priority 2018, dated 2024)

Assay: Odor description (olfactory evaluation of the compound / isomeric mixture)
Conditions: odor of the isomeric mixture unless otherwise indicated

For CC1=CC(C)OC(CCCc2ccccc2)C1 (stereo not drawn) [Example 2, 4,6-Dimethyl-2-(3-phenylpropyl)-3,6-dihydro-2H-pyran], the Odor description was “green, pyrazine like, rooty, petitgrain, chili pepper”.

In the case of CC1=CCOC(CCCc2ccccc2)C1 (stereo not drawn) [Example 1, 4-Methyl-2-(3-phenylpropyl)-3,6-dihydro-2H-pyran], the Odor description is reported as “green, earthy, stemone, bell pepper, petitgrain, sligthly rosy” and the Odor description (listed as 4-methyl-2-(3-phenylpropyl)-3,6-dihydro-2H-pyran) is reported as “very powerful, green, earthy, stemone, bell pepper, petitgrain, sligthly rosy”.

For CC1=CCOC(CCc2ccccc2)C1 (stereo not drawn) [Example 5, 4-Methyl-2-phenethyl-3,6-dihydro-2H-pyran, reference compound], the Odor description was “green, rosy, metallic, geranium leaf”.

In the case of CC1=CCOC(CCCCc2ccccc2)C1 (stereo not drawn) [Example 4, 4-Methyl-2-(4-phenylbutyl)-3,6-dihydro-2H-pyran, reference compound], the Odor description is reported as “weak, green, crunchy, bell pepper, floral”.

For CC1=CCOC(Cc2ccccc2)C1 (stereo not drawn) [Example 3, 2-Benzyl-4-methyl-3,6-dihydro-2H-pyran], the Odor description was “green, rosy, metallic, rose oxyde, gun powder, sharp, intense, fatty, floral”.
